# Drug screen on melanoma cell lines: apoptosis marker

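The test systems are human melanoma cell lines, treated with two drugs together for 72 h and then stained and imaged. Values are the share of nuclei positive for cleaved PARP as a percentage of the same share in the DMSO control: 100 is the control level, higher means more apoptosis. Concentrations were fixed for each drug; these are the higher of two levels. The file gives one value for each pair and line, without errors, so small differences may be noise. The marker varies much from line to line, for technical or biological reasons.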 An unselected part of the screen is shown. An entry leaves out what has no value listed here. A dash means that no value is listed here.

Drug key:
cisplatin (8 µM): N.N.[Cl][Pt][Cl]
dovitinib (0.5 µM): CN1CCN(c2ccc3nc(-c4c(N)c5c(F)cccc5[nH]c4=O)[nH]c3c2)CC1
ruxolitinib (5 µM): N#CC[C@H](C1CCCC1)n1cc(-c2ncnc3[nH]ccc23)cn1
veliparib (7 µM): C[C@]1(c2nc3c(C(N)=O)cccc3[nH]2)CCCN1
FK866 (0.05 µM): O=C(/C=C/c1cccnc1)NCCCCC1CCN(C(=O)c2ccccc2)CC1
pioglitazone (10 µM): CCc1ccc(CCOc2ccc(CC3SC(=O)NC3=O)cc2)nc1 (centres unmarked)
JZL184 (5 µM): O=C(Oc1ccc([N+](=O)[O-])cc1)N1CCC(C(O)(c2ccc3c(c2)OCO3)c2ccc3c(c2)OCO3)CC1
T0901317 (7 µM): O=S(=O)(c1ccccc1)N(CC(F)(F)F)c1ccc(C(O)(C(F)(F)F)C(F)(F)F)cc1
BI-D1870 (1 µM): CC(C)CCN1c2nc(Nc3cc(F)c(O)c(F)c3)ncc2N(C)C(=O)C1C (centres unmarked)

Combination	IPC-298	LOX IMVI	A101D	IST-MEL1	A2058	MeWo	WM1716	RVH-421	WM1745	WM3619	SK-MEL-28	RPMI-7951
pioglitazone + BI-D1870	108	81.8	162	208	95.9	34.8	108	108	126	138	104	313
JZL184 + ruxolitinib	89.5	73.5	68.5	32.0	102	122	154	81.9	-	67.3	115	129
dovitinib + T0901317	127	107	195	310	627	397	136	46.4	-	138	297	43.5
FK866 + T0901317	76.3	58.6	23.4	142	99.0	75.7	28.7	186	-	141	40.4	106
pioglitazone + JZL184	52.7	109	164	171	119	138	71.9	40.4	119	88.9	131	139
ruxolitinib + FK866	485	185	66.6	199	161	94.2	157	343	213	106	449	230
pioglitazone + veliparib	77.5	83.2	59.6	21.3	122	27.0	133	108	128	139	62.1	131
cisplatin + ruxolitinib	102	133	597	217	213	259	191	192	190	180	787	686
BI-D1870 + ruxolitinib	202	266	156	73.3	166	356	93.6	118	-	85.7	84.8	153
BI-D1870 + cisplatin	53.3	27.9	538	165	94.2	72.9	352	147	-	120	45.5	252
T0901317 + ruxolitinib	206	128	100	59.7	59.9	210	204	86.6	-	134	62.0	98.8
BI-D1870 + FK866	235	71.4	300	302	92.6	218	106	245	-	98.4	67.2	120
ruxolitinib + veliparib	64.2	302	148	128	258	80.9	157	110	136	187	221	169
FK866 + pioglitazone	128	84.9	45.0	97.8	141	81.8	145	196	-	85.6	190	94.7
cisplatin + dovitinib	107	92.1	57.5	104	651	446	437	72.1	161	120	210	249
pioglitazone + dovitinib	55.1	194	72.0	117	401	404	134	210	-	109	118	109
BI-D1870 + T0901317	62.0	109	254	45.8	78.6	199	56.2	58.8	117	119	32.7	107
dovitinib + BI-D1870	108	54.8	306	157	446	302	103	627	-	170	50.3	173
cisplatin + veliparib	131	156	155	346	169	116	277	136	133	184	227	431
cisplatin + T0901317	42.4	114	149	102	133	77.0	172	132	-	102	135	28.1
JZL184 + BI-D1870	95.9	108	62.7	28.9	151	48.3	149	218	103	118	78.9	66.8
veliparib + JZL184	59.0	587	188	332	171	25.0	36.8	36.6	123	136	88.2	152
cisplatin + JZL184	184	16.5	229	310	68.2	50.3	199	71.1	-	112	53.4	52.0
veliparib + T0901317	102	46.6	169	60.0	168	89.7	101	145	149	139	397	79.1
veliparib + dovitinib	314	207	97.7	139	752	221	111	106	165	135	114	52.0
FK866 + dovitinib	1400	77.7	135	168	734	359	111	1090	341	142	236	189
dovitinib + JZL184	136	269	149	51.5	1050	303	96.3	35.2	-	142	70.1	119
veliparib + FK866	146	57.1	75.3	73.5	324	106	101	549	201	120	177	223
cisplatin + pioglitazone	280	130	43.6	240	88.4	47.8	111	139	-	134	80.9	194

The last 3 entries again:

{"combination": "dovitinib + JZL184", "IPC-298": 136, "LOX IMVI": 269, "A101D": 149, "IST-MEL1": 51.5, "A2058": 1050, "MeWo": 303, "WM1716": 96.3, "RVH-421": 35.2, "WM3619": 142, "SK-MEL-28": 70.1, "RPMI-7951": 119}
{"combination": "veliparib + FK866", "IPC-298": 146, "LOX IMVI": 57.1, "A101D": 75.3, "IST-MEL1": 73.5, "A2058": 324, "MeWo": 106, "WM1716": 101, "RVH-421": 549, "WM1745": 201, "WM3619": 120, "SK-MEL-28": 177, "RPMI-7951": 223}
{"combination": "cisplatin + pioglitazone", "IPC-298": 280, "LOX IMVI": 130, "A101D": 43.6, "IST-MEL1": 240, "A2058": 88.4, "MeWo": 47.8, "WM1716": 111, "RVH-421": 139, "WM3619": 134, "SK-MEL-28": 80.9, "RPMI-7951": 194}

Source: doi:10.1371/journal.pone.0140310, primary screening data, rounded.